The nature of the experiment: qHTS Assay to Find Inhibitors of Chronic Active B-Cell Receptor Signaling. The conditions noted are these: ABC-DLBCL IkBa-CBG/CBR reporter, luminescence ratio (green luciferase fused to IkBa over red control in TMD8 lymphoma cells), 4 h. The method in brief: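 TMD8 ABC-DLBCL cells carrying doxycycline-inducible green luciferase fused to IkappaBalpha plus unfused red luciferase were exposed to compounds (up to 46 uM) for 4 hrs at 37C. Activity came from the overlap-corrected green/red luminescence ratio.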

Where [1] appears, read: measured here: CBR red luminescence, cell number.
Setting [2] is: measured here: IkBa-CBG green luminescence.

Each structure is given as a SMILES string. The list shows a part of the results. Further columns of the screen follow, without active or inactive calls. The list favours compounds with an active or inconclusive main result. Potencies come from curve fits of mixed quality, noted in brackets.

As usually defined, the AC50 is the midpoint of the concentration-response curve, whichever way the signal moves.

Consider `CCc1ccc(NC(=O)CN2C(=O)C(=O)N(Cc3ccccc3)C2=O)cc1`, for which the half-maximal activity concentration (AC50) under setting [1] is 15.8 µM [rising, partial curve, poor fit].

In the case of `Cc1noc(C)c1COc1cccc(C(=O)NCCc2c[nH]c3ccccc23)c1`, under setting [1], the concentration at half-maximal activity (AC50) was 3.55 µM [falling, full curve].

With `O=C(Nc1ccc(F)c(Cl)c1)c1cc(-c2ccco2)on1`, the half-maximal activity concentration (AC50) under setting [1] is 7.94 µM [falling, partial curve]. Still for that read-out and setting: the result for `Cc1nsc(Nc2ccc([N+](=O)[O-])cc2)c1C#N` reads 10 µM [rising, partial curve, poor fit]. Take `COc1ccccc1C(=O)Nc1ccc2c(c1)OCCO2`: the AC50 under setting [1] is 35.5 µM [falling, single point]. On the same count and under the same terms, as for `COc1ccc2[nH]c(C)c(C(=O)CN3CCN(C(=O)c4ccco4)CC3)c2c1`, the figure is 15.8 µM [rising, single point]; as for `O=c1[nH]c2cc3c(cc2cc1CN(CCO)S(=O)(=O)c1ccccc1)OCCO3`, 25.1 µM [rising, single point]; as for `Cc1noc(C)c1NC(=O)N(C)C[C@H]1Oc2ccc(NC(=O)Nc3ccc4c(c3)OCO4)cc2C(=O)N([C@H](C)CO)C[C@@H]1C`, 0.82 µM [rising, full curve, poor fit]. The same measure, in the same setting: the result for `O=C(Cc1ccccc1)Nc1nnc(SCC(=O)NC2CCCC2)s1` reads 20 µM [rising, partial curve, poor fit]. On to `Cc1nc(SCC(=O)NCc2ccco2)c2c(C)c(C)sc2n1`, for which the concentration at half-maximal activity (AC50) under setting [1] is 0.58 µM [falling, partial curve, poor fit].

With `Cc1cc(C2=NNC(=NCc3ccccc3)SC2)c(C)n1-c1c(C)n(C)n(-c2ccccc2)c1=O`, the concentration at half-maximal activity (AC50) under setting [1] is 23.1 µM [rising, single point]. On the same count and under the same terms, the result for `CC(C)(C)c1ccc(C(=O)Nc2sc3c(c2C(=O)O)CCC3)cc1` reads 0.282 µM [rising, full curve, poor fit]. Still for that read-out and setting: the result for `O=C(Nc1nnc(-c2ccccc2F)s1)c1cccnc1` reads 1.26 µM [falling, full curve]; that for `COc1ccc(NC(=S)NCc2cccs2)cc1`, 20 µM [falling, single point]; that for `COc1ccc(-c2csc(N(CCc3ccccc3)C(=O)COc3ccccc3)n2)cc1`, 7.08 µM [rising, full curve]. On the same count and under the same terms, as for `O=C(c1cc(COc2c(F)cccc2F)on1)N1CCc2ccccc2C1`, the figure is 0.355 µM [rising, full curve, poor fit].

Take `COc1ccc(CC(=O)N2CCN=C2SCc2cccc([N+](=O)[O-])c2)cc1`: the AC50 under setting [1] was 11.2 µM [falling, partial curve]. On the same count and under the same terms, as for `FC(F)Oc1ccccc1NC(=S)NCc1ccco1`, the figure is 1.3 µM [rising, partial curve, poor fit]; as for `Cc1nc2scc(-c3ccco3)c2c(=O)n1/N=C/N(C)C`, 23.1 µM [falling, partial curve, poor fit]; as for `O=C(Nc1ccccc1C(=O)NC1CCCC1)NC1CCCC1`, 16.4 µM [rising, single point]. Still for that read-out and setting: the result for `CC(C)C(=O)NNC(=O)CSc1ncnc2c1cnn2-c1ccccc1Cl` reads 4.47 µM [falling, partial curve]. Same read-out and setting: the result for `Cc1ccc(C(=O)NC(=S)Nc2ccc3c(c2)OCCO3)c(C)c1` reads 35.5 µM [falling, single point]; that for `CCc1cc(C(=O)NNC(=S)NC2CCCCC2)cs1`, 0.398 µM [falling, full curve, poor fit].

As for `COc1ccccc1N(CC(=O)NC1CCCCC1)C(=O)CCC(=O)Nc1nccs1`, under setting [1], the AC50 was 1.58 µM [falling, full curve, poor fit].

Turning to `CCOc1ccc2nc(NC(=O)c3ccc(OC)c(S(=O)(=O)N4CCOCC4)c3)sc2c1`, the concentration at half-maximal activity (AC50) under setting [1] was 29.1 µM [falling, single point] and the AC50 under setting [2] is 0.517 µM [falling, full curve, poor fit]. As to `O=C(CCCN1C(=O)/C(=C/c2cccs2)SC1=S)Nc1ccc(O)c(C(=O)O)c1`, under setting [1], the AC50 is 10 µM [falling, partial curve, poor fit]. Still for that read-out and setting: as for `N#Cc1ccccc1NC(=O)C(=O)NCCc1csc(-c2ccc(F)cc2)n1`, the figure is 23.1 µM [rising, single point]. For `CCC1=Nc2cc(C(=O)NCc3ccco3)ccc2Sc2ccc(Cl)cc21`, the AC50 is 6.51 µM [rising, full curve] under setting [1] and 5.17 µM [falling, full curve] under setting [2]. On to `O=C(O)c1cc(Sc2ccc(Br)cc2)nc2ccccc12`, for which the AC50 under setting [1] is 22.4 µM [falling, single point]. `COc1cc(CC(=O)Nc2ccc(Cl)c(C(F)(F)F)c2)cc(OC)c1OC`: the AC50 under setting [1] was 29.1 µM [falling, single point]. Same read-out and setting: the result for `COc1ccc(CC(=O)Nc2nc(-c3ccc(OC)c(OC)c3)cs2)cc1OC` reads 22.4 µM [falling, single point]; that for `COc1ccc(OC)c(NC(=O)CN(C)S(=O)(=O)c2ccc3nc(C)sc3c2)c1`, 2.06 µM [rising, partial curve]. The same measure, in the same setting: the result for `CCOC(=O)N1CCC(N2C(=O)c3ccccc3C2Nc2cc(C(=O)OC)cc(C(=O)OC)c2)CC1` (stereo unspecified) reads 29.1 µM [falling, single point]; that for `Cc1ccccc1C(=O)Nc1ccccc1C(=O)NCc1ccccc1`, 3.55 µM [falling, partial curve, poor fit]. Still for that read-out and setting: as for `CCOC(=O)c1c(C)oc2c1c(CN1CCN(CCO)CC1)c(O)c1ccccc12`, the figure is 35.5 µM [falling, single point].

Consider `CC1CC(C)CN(C(=O)c2ccncc2)C1` (stereo unspecified), for which the half-maximal activity concentration (AC50) under setting [1] is 6.51 µM [rising, single point]. For `CCOC(=O)c1cn2nc(N3CCCCC3)ccc2n1`, the half-maximal activity concentration (AC50) under setting [1] is 10 µM [falling, partial curve, poor fit].

As to `O=C(C#Cc1cccc([N+](=O)[O-])c1)c1ccccc1`, the AC50 under setting [1] is 4.11 µM [falling, partial curve, poor fit]. The same measure, in the same setting: as for `O=c1[nH]c2cc3c(cc2cc1CN(Cc1nnnn1CC1CCCO1)C1CCCCC1)OCO3` (stereo unspecified), the figure is 20.6 µM [rising, single point]; as for `COc1ccc(C(=O)NCc2n[nH]c(=S)n2-c2ccccc2)cc1OC`, 18.4 µM [rising, single point]; as for `Cc1cccc(CC(=O)Nc2cc(C)c3c(=O)oc4ccccc4c3n2)c1`, 0.92 µM [falling, full curve, poor fit].

In the case of `CCN1CCC(NC(=O)Nc2ccc(F)cc2)CC1`, the AC50 under setting [1] was 5.62 µM [rising, single point]. `COc1ccc(C2CCCN2C(=S)Nc2ccc(C)cc2Cl)cc1OC` (stereo unspecified): the AC50 under setting [1] is 35.5 µM [rising, partial curve, poor fit]. For the compound `CN(C)c1ccc(/C=C/C(=O)c2ccc(C(C)(C)C)cc2)cc1[N+](=O)[O-]`, the AC50 under setting [2] is 18.4 µM [falling, partial curve, poor fit]. Turning to `C=CCn1c(SCC(=O)Nc2ccc3c(c2)CCC3)nc2ccccc2c1=O`, the concentration at half-maximal activity (AC50) under setting [1] was 2.59 µM [falling, partial curve, poor fit].

Regarding `Cc1ccc(CN2CC(C(=O)OCc3ccccc3Cl)CC2=O)cc1` (stereo unspecified), under setting [1], the concentration at half-maximal activity (AC50) is 32.6 µM [rising, partial curve, poor fit]. Still for that read-out and setting: as for `CCn1c(C(=O)O)c(CC(=O)Nc2ccc(Br)cc2C)c2ccccc21`, the figure is 0.398 µM [rising, full curve, poor fit].

Take `Cc1ccc(NC(=O)c2cccs2)cc1NC(=O)c1cccnc1`: the concentration at half-maximal activity (AC50) under setting [1] is 7.08 µM [falling, partial curve, poor fit]. On the same count and under the same terms, the result for `Cc1nn(-c2ccccc2)c2sc(C(=O)N3CCc4ccccc4C3)cc12` reads 2.24 µM [falling, partial curve, poor fit]; that for `C/C(CC(=O)Nc1ccc2c(c1)OCCO2)=N\NC(=O)c1ccccn1`, 8.91 µM [falling, partial curve]; that for `O=C(Nc1cccc2c1[nH]c1ccccc12)C(F)(F)F`, 32.6 µM [rising, partial curve, poor fit]. Still for that read-out and setting: the result for `CCOC(=O)c1ccc2[nH]c3c(c2c1)CCCC3` reads 0.562 µM [rising, full curve, poor fit]; that for `C=CCNC(=S)N1CCN(c2ccccc2Cl)CC1`, 0.1 µM [rising, full curve, poor fit]; that for `O=C(N/N=C/c1ccsc1)c1ccc2ccccc2n1`, 14.1 µM [falling, single point]. On the same count and under the same terms, the result for `COc1ccc(C(=O)Nc2cc(OC)cc3cccnc23)cc1` reads 5.62 µM [rising, partial curve, poor fit].

Consider `Cc1ccc(CSc2nc3c(c(SCC(=O)O)n2)CCCC3)cc1`, for which the AC50 under setting [1] was 12.6 µM [falling, partial curve]. Same read-out and setting: the result for `COc1ccc(-n2c(Cc3cccn3C)nnc2SCC(=O)Nc2ccccc2)cc1` reads 6.51 µM [falling, single point]. Same read-out and setting: the result for `COc1cc(O)oc1C=Nc1ccc(C(=O)O)cc1` reads 12.6 µM [falling, partial curve, poor fit]; that for `CCOC(=O)C1CCCN(Cc2nc(N)nc(Nc3ccc(C)cc3)n2)C1` (stereo unspecified), 13 µM [falling, single point]. Same read-out and setting: as for `COc1ccccc1N1CCN(CCN2C(=O)C3CCCCN3C2=O)CC1` (stereo unspecified), the figure is 14.1 µM [rising, single point]; as for `CCn1c(SCC(=O)Nc2nnc(C)s2)nnc1C(C)NC(=O)c1ccccc1` (stereo unspecified), 4.47 µM [rising, single point]; as for `CCN(CC)CCSc1nnc2c3ccccc3n(Cc3ccccc3)c2n1`, 7.94 µM [falling, partial curve, poor fit]. As to `N/C(=N\OC(=O)Cc1ccc([N+](=O)[O-])cc1)c1ccccn1`, the concentration at half-maximal activity (AC50) under setting [1] is 7.94 µM [falling, partial curve].

Take `CC(Sc1nc2ccccc2o1)C(=O)O` (stereo unspecified): the half-maximal activity concentration (AC50) under setting [1] was 5.62 µM [falling, full curve].
